According to US10159726B2, “Peptides, combination of peptides and scaffolds for use in immunotherapeutic treatment of various cancers” (Immatics Biotechnologies GmbH, priority 2015, dated 2018):

Columns and labels:
Set-up in all cases: species or system human
[1] = system: HLA-A*24 molecules of primary tumors; assay: Identification and relative LC-MS quantitation of HLA-A*24 tumor-associated peptides presented on tissue samples (XPRESIDENT presentation profiles); settings: for ENTITIES: Table 9A: selected HLA-A*24-binding tumor-associated peptides, cancer entities on which the peptide was found presented; for Peptide Presentation on cancer entities: Table 9B: selected HLA-A*24 peptides, presentation on additional cancer entities
[2] = system: source genes of selected peptides; assay: Expression profiling of source genes by in-house RNAseq, tumor vs normal tissues (target coverage); settings: for Target coverage, over-expression of source gene, AML: AML (N = 7); for Target coverage, over-expression of source gene, AML / Target coverage, over-expression of source gene, BRCA / Target coverage, over-expression of source gene, CLL / Target coverage, over-expression of source gene, CRC / Target coverage, over-expression of source gene, GB / Target coverage, over-expression of source gene, HCC / Target coverage, over-expression of source gene, OC / Target coverage, over-expression of source gene, OSCAR / Target coverage, over-expression of source gene, PC / Target coverage, over-expression of source gene, RCC / Target coverage, over-expression of source gene, SCLC / Target coverage, over-expression of source gene, pNSCLC: share of tumors with more than 1.5-fold higher expression than highest relevant normal tissue, in-house RNASeq; for Target coverage, over-expression of source gene, BRCA: BRCA (N = 10); for Target coverage, over-expression of source gene, CLL: CLL (N = 10); for Target coverage, over-expression of source gene, CRC: CRC (N = 20); for Target coverage, over-expression of source gene, GB: GB (N = 24); for Target coverage, over-expression of source gene, HCC: HCC (N = 15); for Target coverage, over-expression of source gene, OC: OC (N = 12); for Target coverage, over-expression of source gene, OSCAR: OSCAR (N = 11); for Target coverage, over-expression of source gene, PC: PC (N = 26); for Target coverage, over-expression of source gene, RCC: RCC (N = 10); for Target coverage, over-expression of source gene, SCLC: SCLC (N = 10); for Target coverage for source genes of selected peptides, GBC_CCC (N = 10): gallbladder adenocarcinoma and cholangiocarcinoma; for Target coverage for source genes of selected peptides, GBC_CCC (N = 10) / Target coverage for source genes of selected peptides, GC (N = 11) / Target coverage for source genes of selected peptides, HNSCC (N = 10) / Target coverage for source genes of selected peptides, MEL (N = 10) / Target coverage for source genes of selected peptides, NHL (N = 10) / Target coverage for source genes of selected peptides, PCA (n = 10) / Target coverage for source genes of selected peptides, UBC (N = 10) / Target coverage for source genes of selected peptides, UTC (N = 10): share of tumors with more than 1.5-fold higher expression than the highest-expressing relevant normal tissue, in-house RNAseq; for Target coverage for source genes of selected peptides, GC (N = 11): gastric cancer; for Target coverage for source genes of selected peptides, HNSCC (N = 10): head and neck small cell carcinoma; for Target coverage for source genes of selected peptides, MEL (N = 10): melanoma; for Target coverage for source genes of selected peptides, NHL (N = 10): non-Hodgkin lymphoma; for Target coverage, over-expression of source gene, pNSCLC: pNSCLC (N = 11); for Target coverage for source genes of selected peptides, PCA (n = 10): prostate cancer and benign prostate hyperplasia; for Target coverage for source genes of selected peptides, UBC (N = 10): urinary bladder cancer; for Target coverage for source genes of selected peptides, UTC (N = 10): uterine cancer
[3] = system: source genes of selected peptides; assay: Target coverage of source genes in tumor entities based on TCGA Research Network data; settings: over-expressed = more than 2-fold above the highest 75% percentile of normal organs; for Target coverage, over-expression category of source gene, BLCA (N = 408): Bladder urothelial carcinoma; for Target coverage, over-expression category of source gene, CESC (N = 307): Cervical squamous cell carcinoma and endocervical adenocarcinoma; for Target coverage, over-expression category of source gene, HNSC (N = 521): Head and neck squamous cell carcinoma; for Target coverage, over-expression category of source gene, DLBC (N = 48): Lymphoid neoplasm diffuse large B-cell lymphoma; for Target coverage, over-expression category of source gene, MESO (N = 87): Mesothelioma

Substance	ENTITIES [1]	Peptide Presentation on cancer entities [1]	Target coverage, over-expression of source gene, AML [2]	Target coverage, over-expression of source gene, BRCA [2]	Target coverage, over-expression of source gene, CLL [2]	Target coverage, over-expression of source gene, CRC [2]	Target coverage, over-expression of source gene, GB [2]	Target coverage, over-expression of source gene, HCC [2]	Target coverage, over-expression of source gene, OC [2]	Target coverage, over-expression of source gene, OSCAR [2]	Target coverage, over-expression of source gene, PC [2]	Target coverage, over-expression of source gene, RCC [2]	Target coverage, over-expression of source gene, SCLC [2]	Target coverage for source genes of selected peptides, GBC_CCC (N = 10) [2]	Target coverage, over-expression of source gene, pNSCLC [2]	Target coverage, over-expression category of source gene, BLCA (N = 408) [3]	Target coverage, over-expression category of source gene, CESC (N = 307) [3]	Target coverage, over-expression category of source gene, HNSC (N = 521) [3]	Target coverage, over-expression category of source gene, DLBC (N = 48) [3]	Target coverage, over-expression category of source gene, MESO (N = 87) [3]	also measured
344: peptide found in BUB1 (gene looked up) (EYNSDLHQF; listed as Homo sapiens) [compound 344]	GB, RCC, HCC, NSCLC, GC	PCA	I (<19% over-expression = I)	I (<19% over-expression = I)	I (<19% over-expression = I)	I (<19% over-expression = I)	I (<19% over-expression = I)	I (<19% over-expression = I)	I (<19% over-expression = I)	I (<19% over-expression = I)	I (<19% over-expression = I)	I (<19% over-expression = I)	II (20-49% = II)	I (<19% over-expression = I)	I (<19% over-expression = I)	B (>=20% of tumors above the cutoff, but <50%)	B (>=20% of tumors above the cutoff, but <50%)	B (>=20% of tumors above the cutoff, but <50%)	A (>=50% of tumors above the cutoff)	C (>=5% of tumors above the cutoff, but <20%)	Target coverage for source genes of selected peptides, GC (N = 11) [2]: I (<19% over-expression = I); Target coverage for source genes of selected peptides, HNSCC (N = 10) [2]: I (<19% over-expression = I); Target coverage for source genes of selected peptides, MEL (N = 10) [2]: I (<19% over-expression = I); Target coverage for source genes of selected peptides, NHL (N = 10) [2]: II (20-49% = II); Target coverage for source genes of selected peptides, PCA (n = 10) [2]: I (<19% over-expression = I); Target coverage for source genes of selected peptides, UBC (N = 10) [2]: I (<19% over-expression = I); Target coverage for source genes of selected peptides, UTC (N = 10) [2]: I (<19% over-expression = I)
237: peptide found in KIF14 (gene looked up) (KYVGQLAVL; listed as Homo sapiens) [compound 237]		HCC	I (<19% over-expression = I)	I (<19% over-expression = I)	I (<19% over-expression = I)	I (<19% over-expression = I)	I (<19% over-expression = I)	I (<19% over-expression = I)	I (<19% over-expression = I)	I (<19% over-expression = I)	I (<19% over-expression = I)	I (<19% over-expression = I)	II (20-49% = II)		I (<19% over-expression = I)	A (>=50% of tumors above the cutoff)	A (>=50% of tumors above the cutoff)	A (>=50% of tumors above the cutoff)	A (>=50% of tumors above the cutoff)	B (>=20% of tumors above the cutoff, but <50%)	Target coverage, over-expression category of source gene, ACC (N = 79) ([3]; Adrenocortical carcinoma): C (>=5% of tumors above the cutoff, but <20%); Target coverage, over-expression category of source gene, CHOL (N = 36) ([3]; Cholangiocarcinoma): C (>=5% of tumors above the cutoff, but <20%); Target coverage, over-expression category of source gene, LGG (N = 534) ([3]; Lower grade glioma): C (>=5% of tumors above the cutoff, but <20%)
214: peptide found in CCNB2 (gene looked up) (KYLMELTLI; listed as Homo sapiens) [compound 214]		NSCLC	I (<19% over-expression = I)	I (<19% over-expression = I)	I (<19% over-expression = I)	I (<19% over-expression = I)	I (<19% over-expression = I)	I (<19% over-expression = I)	I (<19% over-expression = I)	I (<19% over-expression = I)	I (<19% over-expression = I)	I (<19% over-expression = I)	II (20-49% = II)		I (<19% over-expression = I)	B (>=20% of tumors above the cutoff, but <50%)	A (>=50% of tumors above the cutoff)	B (>=20% of tumors above the cutoff, but <50%)	B (>=20% of tumors above the cutoff, but <50%)	C (>=5% of tumors above the cutoff, but <20%)	
145: peptide found in CCR8 (gene looked up) (VYALKVRTI; listed as Homo sapiens) [compound 145]	NSCLC													II (20-49% = II)				C (>=5% of tumors above the cutoff, but <20%)	C (>=5% of tumors above the cutoff, but <20%)		Target coverage for source genes of selected peptides, GC (N = 11) [2]: I (<19% over-expression = I); Target coverage for source genes of selected peptides, HNSCC (N = 10) [2]: II (20-49% = II); Target coverage for source genes of selected peptides, MEL (N = 10) [2]: II (20-49% = II); Target coverage for source genes of selected peptides, NHL (N = 10) [2]: II (20-49% = II); Target coverage for source genes of selected peptides, PCA (n = 10) [2]: I (<19% over-expression = I); Target coverage for source genes of selected peptides, UBC (N = 10) [2]: II (20-49% = II); Target coverage for source genes of selected peptides, UTC (N = 10) [2]: I (<19% over-expression = I)

For some assays here: For expression read-outs the peptide stands for its source gene, whose mRNA was measured; the gene is not named for every peptide.
